This note sets out measurements from paper PMC4484809.

For some of these results: A negative result means that nothing was seen under these conditions. For some of these results: At least one verdict rests on a figure or table, not on a statement of the authors. For some of these results: Weaker means in comparison with the reference protein, sequence or condition of that experiment. For some of these results: The exact form of at least one protein or probe is not confirmed.

Holding throughout (experiment): EMSA
(A gel shift assay detects complexes by their altered migration in electrophoresis.)

Series [1] relates to Ded1 wild type + Xpo1 + Ran[GTP] Q71L. As to conditions: 3 mM AMP-PNP, GTP, slower-migrating complex, Ded1:RNA bands still visible, overall binding reduced; EMSA: 50 mM Tris pH 7.8, 60 mM NaCl, 2 mM MgCl2, 0.1 mg/mL BSA, 5% glycerol, 1 U/uL RNasin Plus, 0.01% NP-40, 1 mM DTT; 900 nM Ded1, 10 nM RNA, 20 min room temperature; recombinant protein.
Series [2] deals with Ded1 I13A (Saccharomyces cerevisiae) (UniProt P06634). The following applies: 3 mM AMP-PNP, EMSA: 50 mM Tris pH 7.8, 60 mM NaCl, 2 mM MgCl2, 0.1 mg/mL BSA, 5% glycerol, 1 U/uL RNasin Plus, 0.01% NP-40, 1 mM DTT, 900 nM Ded1, 10 nM RNA, 20 min room temperature, recombinant protein, residues 1-604.
In series [3] the target is Ded1 wild type (Saccharomyces cerevisiae) (UniProt P06634). As to conditions: without AMP-PNP (supershifts stated to depend on AMP-PNP); EMSA: 50 mM Tris pH 7.8, 60 mM NaCl, 2 mM MgCl2, 0.1 mg/mL BSA, 5% glycerol, 1 U/uL RNasin Plus, 0.01% NP-40, 1 mM DTT; 900 nM Ded1, 10 nM RNA, 20 min room temperature; recombinant protein; residues 1-604.

“CGAAUUCAAAACAAAACAAAACUAG [25mer FAM-labeled ssRNA]”: the binding result in series [1] is on record as “binds more weakly”; in series [2] (with 990 nM Xpo1 and 1.17 uM Ran[GTP]Q71L, no additional supershift (no ternary complex)), “binds”; in series [2] (without Xpo1/Ran), “binds”; in series [3] it was “no binding”.
